Assay results reported in patent US10064952B2 (Genzyme Corporation, priority 2014, dated 2018).

Experiment: peptide synthesis
Conditions: late stage modification step; for final HPLC purity: reversed-phase HPLC

| Substance | step yield | final HPLC purity |
| --- | --- | --- |
| Aminooxy-Cys-MC-VC-PABC-MMAE | 62% | >96% |
| Aminooxy-Cys-MC-VC-PABC-PEG8-Do110 | 46% | >96% |
